The values that follow come from paper PMC3228830, “Targeted Proteolysis of Plectin Isoform 1a Accounts for Hemidesmosome Dysfunction in Mice Mimicking the Dominant Skin Blistering Disease EBS-Ogna” (PLoS Genetics, 2011).

Amino acid sequences for entries named in this document (tags omitted).
UniProt P30427: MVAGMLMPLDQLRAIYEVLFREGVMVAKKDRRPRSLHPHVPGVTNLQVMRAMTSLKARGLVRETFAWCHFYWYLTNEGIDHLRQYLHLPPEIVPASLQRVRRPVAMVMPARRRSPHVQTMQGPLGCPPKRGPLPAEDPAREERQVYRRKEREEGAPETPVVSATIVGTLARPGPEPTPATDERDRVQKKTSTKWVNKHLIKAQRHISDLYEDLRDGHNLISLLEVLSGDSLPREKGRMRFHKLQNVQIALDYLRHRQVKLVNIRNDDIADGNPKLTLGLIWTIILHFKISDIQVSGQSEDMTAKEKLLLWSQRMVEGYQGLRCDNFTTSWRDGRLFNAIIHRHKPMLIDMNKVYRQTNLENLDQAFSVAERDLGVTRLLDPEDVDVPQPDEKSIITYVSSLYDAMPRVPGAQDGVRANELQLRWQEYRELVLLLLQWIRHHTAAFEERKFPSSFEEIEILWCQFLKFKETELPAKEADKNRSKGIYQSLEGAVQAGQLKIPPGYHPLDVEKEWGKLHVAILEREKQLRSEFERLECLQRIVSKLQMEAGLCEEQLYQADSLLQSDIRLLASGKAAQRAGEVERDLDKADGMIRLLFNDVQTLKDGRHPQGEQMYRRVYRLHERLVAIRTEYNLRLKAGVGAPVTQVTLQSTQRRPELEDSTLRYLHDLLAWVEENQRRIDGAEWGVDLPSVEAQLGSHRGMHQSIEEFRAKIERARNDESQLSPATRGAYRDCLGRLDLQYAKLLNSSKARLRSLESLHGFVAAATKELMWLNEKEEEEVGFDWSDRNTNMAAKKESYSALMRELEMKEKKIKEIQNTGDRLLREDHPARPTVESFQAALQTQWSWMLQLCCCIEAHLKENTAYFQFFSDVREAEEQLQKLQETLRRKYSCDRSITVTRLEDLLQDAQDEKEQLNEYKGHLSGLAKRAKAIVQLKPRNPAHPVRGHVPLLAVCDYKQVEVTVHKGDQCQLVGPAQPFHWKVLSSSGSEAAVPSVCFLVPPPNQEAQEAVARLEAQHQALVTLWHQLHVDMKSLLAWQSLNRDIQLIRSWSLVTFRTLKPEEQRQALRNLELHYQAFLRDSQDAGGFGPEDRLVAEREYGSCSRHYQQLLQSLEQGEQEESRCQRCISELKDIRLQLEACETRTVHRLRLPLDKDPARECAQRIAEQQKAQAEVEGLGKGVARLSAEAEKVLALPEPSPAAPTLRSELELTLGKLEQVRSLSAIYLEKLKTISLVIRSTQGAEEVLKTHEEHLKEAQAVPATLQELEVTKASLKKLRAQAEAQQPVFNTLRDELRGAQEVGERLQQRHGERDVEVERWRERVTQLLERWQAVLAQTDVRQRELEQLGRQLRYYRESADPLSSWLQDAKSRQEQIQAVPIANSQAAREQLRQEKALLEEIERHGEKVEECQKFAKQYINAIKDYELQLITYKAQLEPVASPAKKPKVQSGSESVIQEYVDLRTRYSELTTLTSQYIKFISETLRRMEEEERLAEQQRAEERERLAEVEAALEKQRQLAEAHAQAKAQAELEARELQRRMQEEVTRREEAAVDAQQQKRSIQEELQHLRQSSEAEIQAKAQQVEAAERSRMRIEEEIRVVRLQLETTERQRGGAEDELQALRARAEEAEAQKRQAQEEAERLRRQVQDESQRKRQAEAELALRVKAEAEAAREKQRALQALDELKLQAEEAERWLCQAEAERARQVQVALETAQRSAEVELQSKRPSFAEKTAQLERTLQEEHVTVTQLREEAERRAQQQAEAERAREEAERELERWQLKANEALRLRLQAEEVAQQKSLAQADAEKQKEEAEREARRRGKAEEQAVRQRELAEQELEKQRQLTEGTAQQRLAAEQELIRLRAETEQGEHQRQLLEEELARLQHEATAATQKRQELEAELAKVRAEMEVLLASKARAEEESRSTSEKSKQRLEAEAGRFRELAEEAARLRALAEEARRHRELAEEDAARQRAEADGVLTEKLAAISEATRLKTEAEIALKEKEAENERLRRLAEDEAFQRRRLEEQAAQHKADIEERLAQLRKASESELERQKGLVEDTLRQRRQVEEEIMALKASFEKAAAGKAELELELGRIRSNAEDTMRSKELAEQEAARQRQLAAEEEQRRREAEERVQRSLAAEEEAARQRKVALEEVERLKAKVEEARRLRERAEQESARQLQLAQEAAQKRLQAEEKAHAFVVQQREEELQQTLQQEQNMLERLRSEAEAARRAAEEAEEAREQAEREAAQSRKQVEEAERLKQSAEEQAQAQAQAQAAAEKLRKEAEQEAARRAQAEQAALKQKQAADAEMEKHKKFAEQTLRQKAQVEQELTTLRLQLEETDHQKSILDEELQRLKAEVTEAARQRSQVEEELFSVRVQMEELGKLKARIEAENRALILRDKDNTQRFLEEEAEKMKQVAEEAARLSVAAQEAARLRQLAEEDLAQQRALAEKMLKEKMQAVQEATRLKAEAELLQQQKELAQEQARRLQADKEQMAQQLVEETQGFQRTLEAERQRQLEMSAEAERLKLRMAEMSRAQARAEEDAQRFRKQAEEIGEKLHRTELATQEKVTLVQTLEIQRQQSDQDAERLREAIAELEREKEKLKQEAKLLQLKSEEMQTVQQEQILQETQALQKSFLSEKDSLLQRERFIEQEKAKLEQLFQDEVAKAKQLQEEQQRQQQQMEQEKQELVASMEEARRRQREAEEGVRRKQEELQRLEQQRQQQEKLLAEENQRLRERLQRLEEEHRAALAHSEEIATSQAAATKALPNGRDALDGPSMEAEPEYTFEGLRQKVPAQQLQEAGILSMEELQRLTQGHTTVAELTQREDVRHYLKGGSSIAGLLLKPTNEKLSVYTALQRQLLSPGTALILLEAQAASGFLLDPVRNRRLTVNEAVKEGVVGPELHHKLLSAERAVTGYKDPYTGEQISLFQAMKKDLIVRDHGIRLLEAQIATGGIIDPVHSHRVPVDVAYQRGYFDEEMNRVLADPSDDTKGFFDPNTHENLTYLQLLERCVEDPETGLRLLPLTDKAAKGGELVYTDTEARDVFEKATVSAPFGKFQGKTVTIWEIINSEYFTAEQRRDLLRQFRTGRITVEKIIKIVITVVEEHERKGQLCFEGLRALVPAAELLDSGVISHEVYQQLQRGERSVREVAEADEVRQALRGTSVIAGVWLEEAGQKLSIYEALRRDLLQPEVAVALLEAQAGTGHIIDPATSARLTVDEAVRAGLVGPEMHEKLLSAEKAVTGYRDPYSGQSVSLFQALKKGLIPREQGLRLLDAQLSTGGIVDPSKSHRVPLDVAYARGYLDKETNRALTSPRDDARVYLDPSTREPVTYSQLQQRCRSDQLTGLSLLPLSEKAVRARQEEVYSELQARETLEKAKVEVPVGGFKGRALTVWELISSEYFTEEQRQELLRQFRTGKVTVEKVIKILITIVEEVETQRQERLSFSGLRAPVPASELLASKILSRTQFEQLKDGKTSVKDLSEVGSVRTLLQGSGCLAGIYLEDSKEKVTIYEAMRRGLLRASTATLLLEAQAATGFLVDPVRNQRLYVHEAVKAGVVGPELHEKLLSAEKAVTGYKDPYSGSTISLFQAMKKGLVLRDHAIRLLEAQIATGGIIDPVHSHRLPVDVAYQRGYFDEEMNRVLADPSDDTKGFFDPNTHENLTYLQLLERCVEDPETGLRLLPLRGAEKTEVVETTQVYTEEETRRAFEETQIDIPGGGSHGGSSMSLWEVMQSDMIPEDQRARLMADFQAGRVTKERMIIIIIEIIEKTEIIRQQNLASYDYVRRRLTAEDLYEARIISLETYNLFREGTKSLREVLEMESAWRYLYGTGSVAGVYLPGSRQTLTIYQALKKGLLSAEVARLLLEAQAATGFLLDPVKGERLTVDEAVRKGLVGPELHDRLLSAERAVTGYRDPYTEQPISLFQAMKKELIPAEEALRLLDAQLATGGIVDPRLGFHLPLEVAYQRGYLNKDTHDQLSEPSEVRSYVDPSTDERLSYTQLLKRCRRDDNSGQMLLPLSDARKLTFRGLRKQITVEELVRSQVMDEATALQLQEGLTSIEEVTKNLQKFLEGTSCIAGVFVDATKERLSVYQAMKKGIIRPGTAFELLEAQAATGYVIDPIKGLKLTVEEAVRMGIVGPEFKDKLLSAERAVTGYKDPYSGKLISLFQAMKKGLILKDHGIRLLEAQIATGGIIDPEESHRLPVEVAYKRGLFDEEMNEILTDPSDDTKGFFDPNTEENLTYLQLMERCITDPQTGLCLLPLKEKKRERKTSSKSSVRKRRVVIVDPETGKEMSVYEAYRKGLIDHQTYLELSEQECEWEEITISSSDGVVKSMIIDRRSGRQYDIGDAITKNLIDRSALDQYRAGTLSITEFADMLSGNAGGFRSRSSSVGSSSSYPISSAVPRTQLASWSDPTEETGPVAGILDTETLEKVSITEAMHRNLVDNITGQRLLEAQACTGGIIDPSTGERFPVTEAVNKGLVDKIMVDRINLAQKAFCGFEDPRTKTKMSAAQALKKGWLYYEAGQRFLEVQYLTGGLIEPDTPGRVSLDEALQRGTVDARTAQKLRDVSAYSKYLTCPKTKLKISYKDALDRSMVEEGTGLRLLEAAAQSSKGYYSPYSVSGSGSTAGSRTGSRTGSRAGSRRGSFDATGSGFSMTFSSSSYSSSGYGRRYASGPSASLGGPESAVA

For assay [1], the target named is full-length plectin purified from an epithelial (804G) cell line (not stated (endogenous in 804G cells)) (UniProt P30427). In words: negative-staining electron microscopy; full-length plectin purified from 804G cells; data not shown; both purified.
The target of assay [2] is native full-length plectin purified from rat glioma C6 cells (rat (endogenous in glioma C6 cells)) (UniProt P30427). In words: negative-staining electron microscopy; plectin in 7 M urea dialysed into 2 mM Tris-HCl, pH 8.0, 5 mM beta-mercaptoethanol, 3 mM PMSF at 4°C overnight, then 10 mM CaCl2 at 37°C for 1 hour; both purified.

These are yes or no findings as the source states them, for the method shown. Some entries that bind do so weakly or less than the wild type.

Take “full-length plectin purified from an epithelial (804G) cell line (from UniProt P30427 1-4687)”: in assay [1], the binding result is on record as “binds”.
For “native full-length plectin purified from rat glioma C6 cells (from UniProt P30427 1-4687)”, in assay [2], the binding entry is “binds”.
